Results are given in words; binding and its absence hold for the method and conditions named. For some assays here: In cells and extracts the contact can be indirect. Some entries that bind do so weakly or less than the wild type.

Sequences of proteins named here, by UniProt entry; tags and fusion partners are left off.
UniProt P31260: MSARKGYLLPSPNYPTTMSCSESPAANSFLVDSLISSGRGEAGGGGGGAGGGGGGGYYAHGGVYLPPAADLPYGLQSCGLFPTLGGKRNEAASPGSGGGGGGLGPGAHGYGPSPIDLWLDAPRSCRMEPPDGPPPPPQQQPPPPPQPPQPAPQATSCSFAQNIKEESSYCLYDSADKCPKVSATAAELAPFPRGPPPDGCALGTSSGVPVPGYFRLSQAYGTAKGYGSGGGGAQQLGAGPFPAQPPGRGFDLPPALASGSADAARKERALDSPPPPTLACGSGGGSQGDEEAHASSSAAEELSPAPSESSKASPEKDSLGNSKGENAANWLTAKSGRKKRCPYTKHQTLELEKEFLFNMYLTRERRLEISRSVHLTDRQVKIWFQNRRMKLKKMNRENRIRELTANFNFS

This note sets out measurements from article PMC5833723.

Experiment [1] addresses Homeo box A10 (HOXA10), yeast two-hybrid bait (UniProt P31260). Description: two-hybrid; yeast two-hybrid screen of a human endometrium cDNA library with HOXA10 as bait.
Experiment [2] addresses HOXA10, endogenous in Ishikawa cells (human (endogenous in Ishikawa)) (UniProt P31260). Put plainly: co-IP; 800 μg Ishikawa protein extract, endogenous proteins; HOXA10 antibody at 4 °C overnight, Protein G-agarose beads; goat IgG as negative control; immunoblot. A general note: A western blot detects proteins with antibodies after separation by electrophoresis.

B1: calpain7 (CAPN7) 550–813 AA clone (domain or fragment, UniProt Q9Y6W3 550-813)
chain: HSTWDAKQGPVKDAYSLANNPQYKLEVQCPQGGAAVWVLLSRHITDKDDFANNREFITMVVYKTDGKKVYYPADPPPYIDGIRINSPHYLTKIKLTTPGTHTFTLVVSQYEKQNTIHYTVRVYSACSFTFSKIPSPYTLSKRINGKWSGQSAGGCGNFQETHKNNPIYQFHIEKTGPLLIELRGPRQYSVGFEVVTVSTLGDPGPHGFLRKSSGDYRCGFCYLELENIPSGIFNIIPSTFLPKQEGPFFLDFNSIIPIKITQLQ
As to B1, the binding result in experiment [1] was “binds”.

B2: CAPN7, endogenous in Ishikawa cells (enzyme, UniProt Q9Y6W3 1-813)
chain: MDATALERDAVQFARLAVQRDHEGRYSEAVFYYKEAAQALIYAEMAGSSLENIQEKITEYLERVQALHSAVQSKSADPLKSKHQLDLERAHFLVTQAFDEDEKENVEDAIELYTEAVDLCLKTSYETADKVLQNKLKQLARQALDRAEALSEPLTKPVGKISSTSVKPKPPPVRAHFPLGANPFLERPQSFISPQSCDAQGQRYTAEEIEVLRTTSKINGIEYVPFMNVDLRERFAYPMPFCDRWGKLPLSPKQKTTFSKWVRPEDLTNNPTMIYTVSSFSIKQTIVSDCSFVASLAISAAYERRFNKKLITGIIYPQNKDGEPEYNPCGKYMVKLHLNGVPRKVIIDDQLPVDHKGELLCSYSNNKSELWVSLIEKAYMKVMGGYDFPGSNSNIDLHALTGWIPERIAMHSDSQTFSKDNSFRMLYQRFHKGDVLITASTGMMTEAEGEKWGLVPTHAYAVLDIREFKGLRFIQLKNPWSHLRWKGRYSENDVKNWTPELQKYLNFDPRTAQKIDNGIFWISWDDLCQYYDVIYLSWNPGLFKESTCIHSTWDAKQGPVKDAYSLANNPQYKLEVQCPQGGAAVWVLLSRHITDKDDFANNREFITMVVYKTDGKKVYYPADPPPYIDGIRINSPHYLTKIKLTTPGTHTFTLVVSQYEKQNTIHYTVRVYSACSFTFSKIPSPYTLSKRINGKWSGQSAGGCGNFQETHKNNPIYQFHIEKTGPLLIELRGPRQYSVGFEVVTVSTLGDPGPHGFLRKSSGDYRCGFCYLELENIPSGIFNIIPSTFLPKQEGPFFLDFNSIIPIKITQLQ
For B2, in experiment [2], the binding entry is reported as “binds”.
